In PubChem BioAssay AID504375 (National Center for Advancing Translational Sciences (NCATS), 2011):
About 25 (2%) of roughly 1,600 compounds were called active. Not shown: some 7% with an inconclusive outcome. Calls follow the shape of the dose curve; as a rule, active = well fitted inhibition curve with a large enough effect; inconclusive = small, poorly fitted or top-dose-only effect, or effect the other way; inactive = no such curve, though single readings can be large or run the other way. Some of the results follow.

Chains of the proteins cited; added tags and fusions are not shown.
UniProt Q01196, whole entry, looked up: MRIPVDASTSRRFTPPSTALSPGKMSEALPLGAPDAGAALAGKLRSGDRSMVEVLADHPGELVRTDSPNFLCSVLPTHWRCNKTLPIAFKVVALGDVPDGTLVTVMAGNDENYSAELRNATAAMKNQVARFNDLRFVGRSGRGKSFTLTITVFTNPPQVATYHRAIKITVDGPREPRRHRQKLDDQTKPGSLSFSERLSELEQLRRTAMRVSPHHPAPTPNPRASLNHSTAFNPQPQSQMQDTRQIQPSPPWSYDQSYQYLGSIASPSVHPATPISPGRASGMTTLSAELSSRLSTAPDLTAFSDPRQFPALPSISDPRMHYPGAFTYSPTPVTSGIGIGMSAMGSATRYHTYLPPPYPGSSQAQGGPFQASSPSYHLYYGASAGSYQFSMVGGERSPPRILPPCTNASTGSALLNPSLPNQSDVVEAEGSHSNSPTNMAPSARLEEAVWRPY
UniProt Q13951, whole entry, looked up: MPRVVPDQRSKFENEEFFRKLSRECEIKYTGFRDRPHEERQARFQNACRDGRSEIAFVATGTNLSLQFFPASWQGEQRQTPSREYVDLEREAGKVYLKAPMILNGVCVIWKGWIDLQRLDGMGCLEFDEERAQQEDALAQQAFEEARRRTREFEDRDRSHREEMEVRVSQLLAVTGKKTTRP

target: Runt-related transcription factor 1 (Homo sapiens) + Core-binding factor subunit beta (Homo sapiens) (UniProt Q01196+Q13951); test: qHTS Assay for Compounds Blocking the Interaction Between CBF-beta and RUNX1 for the Treatment of Acute Myeloid Leukemia: Hit Validation with Orthogonal Assay; settings: CBFbeta-RUNX1 binding orthogonal assay, biochemical; series mostly up to 41 µM; activity change, negative = inhibition: at the top concentration
In short: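 Compound was incubated for 30 min with biotin-RUNX1 plus His6-CBF-beta at 30 nM per protein. Binding was then detected by TR-FRET between terbium anti-His antibody and 5 nM streptavidin-XL665, read after 90 min, in the same buffer as the AlphaScreen primary assay.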
% is scaled to controls: 0 for no effect and ±100 for the full control effect.

| SMILES | activity change, negative = inhibition |
| --- | --- |
| COc1ccc(Nc2cc(=O)n(-c3ccccc3)c3c2c(=O)n(C)c(=O)n3C)cc1 | inactive: 6.15% |
| CCCCCCC(=O)N(O)C1CC(=O)N(c2ccc(F)cc2)C1=O (configuration not stated) | inactive: -19.4% |
| Cc1oc(S(=O)(=O)N(C)C)cc1C(=O)Nc1ccc(Cl)cc1 | inactive: 6.32% |
| O=S(=O)(NCc1c(Cl)cccc1Oc1ccccc1)c1ccc(F)cc1 | inactive: -3.08% |
| Cc1cccc(C)c1OCC(=O)N(Cc1ccc(N(C)C)cc1)C1CCS(=O)(=O)C1 (configuration not stated) | inactive: 5.43% |
| CCOC(=O)COc1nc(C)cc(C(F)(F)F)c1C#N | inactive: 13.6% |
| Nc1c2ccccc2nc2ccccc12 | inactive: 26% |
| CC(=O)c1cc(C#N)c(SCc2ccccn2)nc1C | inactive: 30.9% |
| CC(=O)N1CCCC1(C(=O)O)c1ccccc1 (configuration not stated) | inactive: 3.9% |
| CC(C)COP(=O)(c1ccc(N(C)C)cc1)C(O)c1cccnc1 (configuration not stated) | inactive: -0.917% |
| C=C(C)C(=O)Nc1cccnc1Oc1ccc(F)cc1 | inactive: -13.7% |
| O=C(O)/C=C/c1cn(-c2ccccc2)nc1-c1ccc(-c2ccc([N+](=O)[O-])cc2)o1 | inactive: 17.8% |
| N/C(CSc1ccccn1)=N\OCc1c(Cl)cccc1Cl | inactive: 4.65% |
| COc1ccc(C(=O)/C=C/Sc2nc3ccccc3o2)cc1 | inactive: -0.575% |
| CC1(C)N=C(N)N=C(N)N1c1ccc(OCCCOc2ccccc2)c(Cl)c1 | inactive: 5.17% |
| Nc1nc(CCl)nc(N(c2ccccc2)c2ccccc2)n1 | inactive: 0.416% |
| Cc1cc(NC(=O)CN2CCCCC2)n(-c2ccccc2)n1 | inactive: 0.881% |
| COc1cc([N+](=O)[O-])ccc1NC(=O)Oc1ccc(NC(C)=O)cc1 | inactive: 19.7% |
| COc1ccc(/C=N/NC(=O)c2cc(C3CC3)[nH]n2)cc1OC | inactive: 6.35% |
| COC(=O)[C@H](CC(C)C)NC(=O)NCCC1=CCCCC1 | inactive: -7.06% |
| COc1ccc(-c2noc(-c3cccs3)n2)cc1OC | inactive: -14% |

| SMILES | activity change, negative = inhibition |
| --- | --- |
| Cc1ccc(C(=O)OCC(=O)Nc2ccc(S(N)(=O)=O)cc2)c(O)c1 | inactive: 2.67% |
| O=c1[nH]c(SCCN2CCOCC2)nc(O)c1-c1ccccc1 | inactive: 8.01% |
| COc1ccccc1NC(=S)NC1CCCCCCCCCCC1 | inactive: -0.232% |
| N#CC(C#N)=C(N)Nc1cccc(Cl)c1 | inactive: 0.208% |
| O=C(O)COc1ccccc1/C=N/NC(=O)CSc1nnc(-c2ccc(Cl)cc2)n1C1CCCCC1 | inactive: 11.9% |
| O=S(=O)(c1ccc(Cl)nc1)N1CCc2ccccc21 | inactive: -9.75% |
| Cc1csc2c(N3CCN(S(=O)(=O)c4ccc(Cl)cc4)CC3)ncnc12 | inactive: 2.89% |
| NC(=S)N1CCCc2ccccc21 | inactive: 9.03% |
| O=S(=O)(CCN1CCSCC1)c1ccc(Cl)cc1 | inactive: -6.89% |
| CCCn1nnc(NC(=S)NC(=O)c2ccc(-c3ccc(Br)cc3)o2)n1 | inactive: 6.06% |
| CN(C)CCCNC(=O)c1ccccc1Oc1ccccc1 | inactive: -7.98% |
| NC(=O)C1CCN(C(=S)NC2CC3C=CC2C3)CC1 (configuration not stated) | inactive: -5.58% |
| CSc1ccc(C(=O)NCC(=O)O)cc1[N+](=O)[O-] | inactive: 33.5% |
| CSc1cccc(NC(N)=S)c1 | inactive: 5.35% |
| C1CCCC(NC2=NCCO2)CCC1 | inactive: 5.31% |
| CN1c2ccccc2C(=O)/C(=C\Nc2ncccn2)S1(=O)=O | inactive: 4.25% |
| OCc1nc2ccc(Cl)cc2[nH]1 | inactive: 3.85% |
| Cc1ccc(/C=N/n2c(-c3ccncc3)n[nH]c2=S)s1 | inactive: 39.9% |
| COC(=O)c1cc(S(=O)(=O)Nc2nn(C)c3cccc(F)c23)oc1C | inactive: 8.34% |
| COc1ccc(Cc2c(O)nc(SCC(=O)N3CCOCC3)[nH]c2=O)cc1 | inactive: 14% |
| CCOC(=O)COc1nc2c(c(-c3ccco3)c1C#N)CCc1ccccc1-2 | inactive: 0.967% |

| SMILES | activity change, negative = inhibition |
| --- | --- |
| CC(=O)Nc1nnc(CSCc2ccc(F)cc2)s1 | inactive: 6.97% |
| Cc1ccc(Cl)cc1NC(=S)NN | inactive: -11.4% |
| Cc1nc([N+](=O)[O-])cn1CCC#N | inactive: 5.53% |
| CCn1c2ccccc2c2cc(NC(=O)c3ccccc3-c3ccccc3C(=O)O)ccc21 | inactive: -23.3% |
| COC(=O)Cc1[nH]c(=O)[nH]c1C(=O)OC | inactive: 1.06% |
| COc1ccc(C(=O)CN2CCN(c3cc(C)nc4ccccc34)CC2)cc1 | inactive: -6.56% |
| COC(=O)CC1C(=O)NC(C)=C1C(=O)OC (configuration not stated) | inactive: -18.1% |
| CCn1c(NC(=O)c2ccccc2F)c(-c2cccs2)c(=O)c2ccccc21 | inactive: -0.942% |
| CC12CCC(C(=Nc3ccc(N=C4C(=O)C5(C)CCC4C5(C)C)cc3)C1=O)C2(C)C | inactive: -23.8% |
| CCC(CC)NCCOC(=O)c1ccc([N+](=O)[O-])cc1 | inactive: 28.2% |
| O=[N+]([O-])c1ccc(Sc2ccccn2)nc1 | inactive: 55.4% |
| CCC(C)c1ccc(OCc2ccc(C(=O)OC)o2)cc1 (configuration not stated) | inactive: 5.36% |
| CCOC(=O)c1cn2nc(Oc3ccccc3)ccc2n1 | inactive: 9.4% |
| O=C(O)c1ccccc1C(=O)Nc1ccc(-n2ccc(C(F)(F)F)n2)cc1 | inactive: -6.89% |
| [O-][N+]12CCCCC1CCCC2CO (configuration not stated) | inactive: -6.68% |
| CC(=O)Nc1ccc(Nc2cc(C(C)C)nc3c(-c4ccccc4)c(C)nn23)cc1 | inactive: 9.96% |
| CCOC(=O)c1cn[nH]c1NC(=S)Nc1ccccc1 | inactive: -12.5% |
| COc1cc(/C=N/n2cc(-c3ccccc3)[nH]c2=S)cc(OC)c1O | inactive: 23.5% |
| CCOC(=O)N1CCC(NS(=O)(=O)c2ccc(C)c(Cl)c2)CC1 | inactive: -6.68% |
| Cc1nn(Cc2cccc(C(=O)NN)c2)c(C)c1Cl | inactive: 7.88% |
| CCOC(=O)c1ccc(OC)c(OC)c1Cl | inactive: 6.26% |

Looked up by compound from the list above:

| SMILES | activity change, negative = inhibition |
| --- | --- |
| CC12CCC(C(=Nc3ccc(N=C4C(=O)C5(C)CCC4C5(C)C)cc3)C1=O)C2(C)C | inactive: -23.8% |
| CCC(C)c1ccc(OCc2ccc(C(=O)OC)o2)cc1 (configuration not stated) | inactive: 5.36% |
| O=[N+]([O-])c1ccc(Sc2ccccn2)nc1 | inactive: 55.4% |

Later entries

| SMILES | activity change, negative = inhibition |
| --- | --- |
| O=C(Oc1c(-c2ccccc2)c(=O)n2c3c(cccc13)CC2)c1cccc([N+](=O)[O-])c1 | inactive: 29.9% |
| CC1SCC(NC(=O)c2ccccc2Cl)CS1 (configuration not stated) | inactive: -3.61% |
| CCOC(=O)c1c(CN2CCN(CCO)CC2)n(-c2ccccc2)c2cc(Br)c(O)cc12 | inactive: 4.21% |
| CCOC(=O)/C=C/c1nc(C(=O)OCC)c(C)c(=O)[nH]1 | inactive: 9.57% |
| COc1cccc(/C=N/NC(=O)C(C)Cn2cnc3ccccc32)c1 (configuration not stated) | inactive: 4.2% |
| Brc1ccc(Cn2c(-c3ccc(Br)o3)nc3ccccc32)o1 | inactive: -42% [at 22.1 µM] |
| CN1CCN(CC(=O)Nc2c(C#N)cnn2-c2ccccc2)CC1 | inactive: -2.51% |
| CCn1c(=O)c2c(nc3n2CCCN3c2cccc(C)c2)n(C)c1=O | inactive: 1.04% |
| CC1(C)CC(=O)C2=C(C1)OC(N)=C(C#N)[C@@H]2c1ccccc1[N+](=O)[O-] | inactive: 5.51% |
| COC(=O)CC1=C(C(=O)OC)[C@@H](c2ccccc2[N+](=O)[O-])C(C#N)=C(N)O1 | inactive: 11.6% |
| CC1(C)C(CC2OCC(CN3CCCCC3)O2)[C@H]2CC[C@@H]1C2 (some centres not stated) | inactive: -3.28% |
| NNC(=S)Nc1c(F)cc(F)cc1Br | inactive: -12.6% |
| C/C(=N\NC(=O)Cn1nc(C)cc1C)c1ccc([N+](=O)[O-])cc1 | inactive: 53.1% |
| C[N+](C)(C)CCCN(Cc1ccc2c(c1)OCO2)C(=O)NC1CCCCC1 | inactive: -2.08% |
| O=C(O)C1CC(c2ccccc2)=Nc2ccccc2S1 (configuration not stated) | inactive: -10.5% |
| c1ccc(CN(Cc2ccccc2)c2ncnc3c2nnn3Cc2ccccc2)cc1 | inactive: 14.9% |
| CN1CCC(CNC(=O)Nc2csc3ccccc23)CC1 | inactive: 7.24% |
| COc1ccc(CCN2C(=O)CSC2=Nc2ccc(C(C)C)cc2)cc1OC | inactive: 0.538% |
| CCN(CC)C(=O)C12C(=O)Oc3ccccc3C1C2(C)C(=O)c1ccc(F)cc1 (configuration not stated) | inactive: 11.6% |
